Some of the results follow. These are further read-outs of the screen, such as a control signal, another cell line or another target. No call is given for them. Compounds called inactive in the main read-out are mostly missing here. The note in brackets gives the kind of curve behind each potency; many fits are weak.
Assay: qHTS Assay for Lipid Storage Modulators in Drosophila S3 Cells;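 as to cell number change: cells counted by Cell Tracker Red CMTPX staining in the red channel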
Conditions: BODIPY lipid droplet fluorescence, 18-24 h; for cell number change: measured here: cell count max response, cells fed with added oleic acid
Method in brief: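 Laser-scanning cytometry quantifies lipid droplet accumulation (500–530 nm total intensity; droplet/cell object ratio) in oleic acid-fed (400 uM added) Drosophila S3 cells treated with a concentration series. 20 uM Triacsin C defined 100% inhibition.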

[1] = measured here: cell number channel AC50, cells fed with added oleic acid
[2] = measured here: lipid fluorescence (Fed channel) AC50, cells fed with added oleic acid

Row | Structure (SMILES) | cell number change [%] | AC50 [1] | AC50 [2]
1 | CC(=O)NS(=O)(=O)c1cccnc1Nc1ccc(Cl)cc1 | -14.9 | – | –
2 | O=C(Nc1ccccc1)c1ccc(F)c(S(=O)(=O)N2CCOCC2)c1 | 0.408 | – | –
3 | COc1cccc(CN(C(=O)c2ccc([N+](=O)[O-])cc2)C2CCS(=O)(=O)C2)c1 (configuration not stated) | -39.4 | 29.1 µM [falling, single point] | 6.51 µM [rising, single point]
4 | CCOC(=O)CC(NC(=O)c1ccco1)c1ccc(C)cc1 (configuration not stated) | 27.3 | – | 0.092 µM [falling, full curve, poor fit]
5 | O=C(Cn1c(C2CC2)nc2ccccc2c1=O)Nc1ccc(Br)cc1 | -6.21 | – | 2.31 µM [falling, partial curve]
6 | CCN(Cc1nc2ccccc2c(=O)[nH]1)C(=O)c1cc2c(s1)CCCCC2 | -13.4 | – | –
7 | O=C(CNC(=O)c1cccs1)c1ccc(Cl)cc1 | -13.2 | – | –
8 | COCCCn1c(SCC(=O)Nc2ccc3c(c2)OCCO3)nnc1-c1ccoc1C | -5.15 | – | 0.461 µM [rising, full curve, poor fit]
9 | CCOc1ccc(N(C(=O)c2ccccc2Cl)C2=NC(C)(C)CS2)cc1 | -20.9 | – | –
10 | C#CCOCCOCCOCCNc1nc(N2CCN(C(=O)CCCCCCCCCCNC(=O)[C@@H](CCC(=O)O)n3cc(CCCCCN)nn3)CC2)nc(N2CCN(C(=O)CCCCCCCCCCNC(=O)[C@H](CO)n3cc(CCCSC)nn3)CC2)n1 | 9.24 | – | 1.46 µM [falling, partial curve]
11 | Cn1c(=O)n(C)c2cc(NS(=O)(=O)c3ccc4c(c3)CCCC4)ccc21 | 157 | 2.31 µM [rising, full curve] | 2.31 µM [rising, partial curve]
12 | COc1ccccc1C(=O)NCc1ccccn1 | 49.3 | 32.6 µM [rising, partial curve, poor fit] | –
13 | COc1ccc(OC)c(C(=O)COC(=O)CN2C(=O)NC3(CCCCC3C)C2=O)c1 (configuration not stated) | 12.6 | – | 4.61 µM [rising, partial curve, poor fit]
14 | O=C(c1cc(-c2ccncc2)nc2ccc(Br)cc12)N1CCN(Cc2ccc3c(c2)OCO3)CC1 | – | – | 13 µM [rising, single point]
15 | COc1cccc2oc3ccc(C#CC4(N)CCCCC4)cc3c(=O)c12 | 9.39 | – | 29.1 µM [rising, single point]
16 | CCOC(=O)c1ccc(NC(=O)CN2CCN(c3ccccc3)CC2)cc1 | 39.7 | 1.03 µM [rising, full curve, poor fit] | 2.06 µM [rising, full curve]
17 | Nc1nc2n(n1)C(c1ccco1)CC(c1ccc(F)cc1)N2 (configuration not stated) | 0.759 | – | –
18 | O=C1CCCC2=C1C(c1cccs1)CC(=O)N2c1ccc(F)cc1 (configuration not stated) | – | – | 6.51 µM [falling, single point]
19 | CCCc1nn(C)c(C(=O)Nc2ccccc2)c1Cl | 7.38 | – | 25.9 µM [rising, single point]

In another format: results already given
Row,Structure (SMILES),cell number change [%],AC50 [1],AC50 [2]
11,Cn1c(=O)n(C)c2cc(NS(=O)(=O)c3ccc4c(c3)CCCC4)ccc21,157,"2.31 µM [rising, full curve]","2.31 µM [rising, partial curve]"
12,COc1ccccc1C(=O)NCc1ccccn1,49.3,"32.6 µM [rising, partial curve, poor fit]",–

(continued)

Row | Structure (SMILES) | cell number change [%] | AC50 [1] | AC50 [2]
20 | O=C(Nc1ccc2c(c1)CCC2)Nc1ccccc1F | 64.5 | 25.9 µM [rising, partial curve] | 4.61 µM [rising, partial curve, poor fit]
21 | O=C(CN1C(=O)NC(c2ccccc2)(c2ccccc2)C1=O)Nc1cccnc1Cl | – | 0.00517 µM [falling, full curve, poor fit] | –
22 | CCN(C(=O)COC(=O)Cc1c(F)cccc1Cl)c1c(N)n(Cc2ccccc2)c(=O)[nH]c1=O | -4.4 | – | 0.00517 µM [falling, full curve, poor fit]
23 | O=C(CN1c2ccccc2S(=O)(=O)c2ccccc21)Nc1ccccc1F | -10.3 | – | –
24 | O=C(NC1CCCCC1)c1ccc2snnc2c1 | -11.9 | – | 10.3 µM [falling, partial curve]
25 | COc1ccc(NC(=O)c2nnn(CC(=O)Nc3ccccc3OC)c2N)c(OC)c1 | 6.49 | – | 0.259 µM [rising, full curve]
26 | CCN(CC(=O)Nc1ccc(S(=O)(=O)N2CCCCC2)cc1)Cc1ccccc1 | -17.6 | – | 14.6 µM [falling, partial curve]
27 | COc1ccccc1NC(=O)c1nnn(Cc2ccccc2)c1NC(=O)C(F)(F)F | 12.7 | – | 0.82 µM [rising, single point]
28 | CN(C)c1nc(F)c(F)c(S(=O)(=O)c2ccccc2)c1F | 15.3 | – | 29.1 µM [rising, single point]
29 | N#CC(C(=O)Nc1ccc(Cl)cc1)=C1Nc2ccccc2N1 | -55.4 | 23.1 µM [falling, partial curve] | 18.4 µM [falling, single point]
30 | CC(=O)NC1=NC(=O)/C(=C/N2CCCCC2)S1 | -195 | 29.1 µM [falling, single point] | –
31 | Clc1c(-c2ccccc2)nnn1-c1ccccc1 | 38.3 | 9.2 µM [rising, partial curve] | 16.4 µM [falling, partial curve, poor fit]
32 | CCc1ccc(C(=O)/C=C/Nc2ccc(S(=O)(=O)Nc3cnc4ccccc4n3)cc2)cc1 | 14.9 | 1.84 µM [rising, partial curve, poor fit] | 3.66 µM [rising, full curve, poor fit]
33 | CCC(C(=O)N1CCN(S(=O)(=O)c2sc(C(=O)O)c(C)c2C(=O)O)CC1)c1ccccc1 (configuration not stated) | 13.2 | – | 0.206 µM [rising, full curve, poor fit]
34 | Cc1[nH]n(-c2ccccc2)c(=O)c1S(=O)(=O)c1ccccc1 | 2.31 | – | 0.0231 µM [falling, full curve, poor fit]
35 | Cc1cc(C)nc(SCC(=O)c2ccc(F)c(C)c2)n1 | 0.0473 | – | 6.51 µM [rising, single point]
36 | Cn1nc(C(=O)N2CCc3ccccc32)c2ccccc2c1=O | -21.6 | 0.651 µM [rising, single point] | –
37 | CCN(CC)C(=O)c1[nH]cnc1C(=O)Nc1ccon1 | 13.4 | – | 0.092 µM [rising, full curve, poor fit]
38 | COc1ccc(NC(=O)c2cnn(-c3ccccc3)c2C)cc1 | 8.76 | – | –
